From paper PMC12431657, “Discovery and mechanistic insights of dibenzoylmethane as a broad spectrum inhibitor of coronavirus” (PLOS Pathogens, 2025)
Structures can show the parent of a compound that is named as a salt. Where two headings read alike, the source gives them in different places. Out of some 3,300 compounds screened, about 60 (2%) showed an effect of 50% or more. Some of the results follow. Peptide text beside a SMILES is read from it.

System: HCoV-OC43
Design: species or system RD; HTS, protection from HCoV-OC43 induced cell death, luminescent cell viability (CellCounting-Lite 2.0), inhibition rate
Conditions: 24 h post infection, 1 h compound pre-incubation, 10 µM, inhibitor

Structure (SMILES) | OC43 Inhibition rate | OC43 Inhibition rate (OC43 Inhibition rate, 24 h)
C1=Cc2cccc3cccc1c23 [Acenaphthylene] | -0.4% | 
CCCSSC [Methyl propyl disulfide] | 1.6% | 
O=Cc1cccs1 [2-Thiophenecarboxaldehyde] | 2.4% | 
Cc1cc(O)cc(C)c1O [2,6-Dimethylhydroquinone] | 10.2% | 
O=C(O)CCCC[C@@H]1CCSS1 [Lipoic acid] | -2.2% | 
O=C(C[C@H]1NCCC[C@@H]1O)Cn1cnc2cc(Br)c(Cl)cc2c1=O (racemic) [Halofuginone] |  | 29.2%
COc1cc2ccc(=O)oc2cc1O [Scopoletin] | 6% | 
C=C(C)[C@@H]1CC[C@]2(C)[C@H](CC=C3[C@@H]4[C@@H](C)[C@H](C)CC[C@]4(C)CC[C@]32C)[C@@]1(C)CCC(=O)O [Roburic acid] | 29.6% | 
CC(C)[C@@H]1NC(=O)CNC(=O)[C@H](C)NC(=O)[C@H](Cc2c[nH]c3ccccc23)NC(=O)[C@H](C)NC1=O [Segetalin B] (cyclo(AGVAW)) | -0.5% | 
COc1cc(-c2oc3cc(O)cc(O)c3c(=O)c2O[C@@H]2O[C@H](CO[C@@H]3O[C@@H](C)[C@H](O)[C@@H](O)[C@H]3O)[C@@H](O)[C@H](O)[C@H]2O[C@@H]2O[C@@H](C)[C@H](O)[C@@H](O)[C@H]2O)ccc1O [Typhaneoside] | -1.2% | 
COc1ccc(-c2oc3c(CC=C(C)C)c(O[C@@H]4O[C@H](CO)[C@@H](O)[C@H](O)[C@H]4O)cc(O)c3c(=O)c2O)cc1 [Icariside I] | 2.1% | 
CC(C)=CCc1c(O)c(CC=C(C)C)c2oc3c(O)cccc3c(=O)c2c1O [8-Deoxygartanin] | 17.8% | 
C=CCc1ccc(O)c(-c2cc(CC=C)ccc2O)c1 [Magnolol] | -0.6% | 
CC(C)c1cccc(=O)c(O)c1 [Hinokitiol] | -1.3% | 
CC(C)=C[C@@H]1CO[C@]23C[C@]4(CO2)[C@H](CC[C@@H]2[C@@]5(C)CC[C@H](O[C@@H]6OC[C@H](O)[C@H](O[C@@H]7O[C@H](COS(=O)(=O)O)[C@@H](O)[C@H](O)[C@H]7O)[C@H]6O[C@@H]6O[C@@H](CO)[C@H](O)[C@H]6O)C(C)(C)[C@@H]5CC[C@]24C)[C@H]3[C@@]1(C)O [Bacopaside I] | 0.8% | 
COc1cc(C[C@@H](CO)[C@H](CO)Cc2ccc(O)c(OC)c2)ccc1O [Secoisolariciresinol] |  | 3.4%
O=P(O)(O)OC[C@H]1OC(O)(COP(=O)(O)O)[C@@H](O)[C@@H]1O (some centres unmarked) [Fosfructose (trisodium)] | 6.3% | 
Nc1nc(=O)c2c([nH]1)NC[C@H](CNc1ccc(C(=O)N[C@@H](CCC(=O)O)C(=O)O)cc1)N2C=O [Levoleucovorin (Calcium)] | 0% | 
O=C(O)[C@H]1CCCCN1 [D-Pipecolinic acid] | -1.3% | 

Copied from the list.
OC43 Inhibition rate with `COc1ccc(-c2oc3c(CC=C(C)C)c(O[C@@H]4O[C@H](CO)[C@@H](O)[C@H](O)[C@H]4O)cc(O)c3c(=O)c2O)cc1` [Icariside I] reads 2.1%
OC43 Inhibition rate with `COc1cc(-c2oc3cc(O)cc(O)c3c(=O)c2O[C@@H]2O[C@H](CO[C@@H]3O[C@@H](C)[C@H](O)[C@@H](O)[C@H]3O)[C@@H](O)[C@H](O)[C@H]2O[C@@H]2O[C@@H](C)[C@H](O)[C@@H](O)[C@H]2O)ccc1O` [Typhaneoside] reads -1.2%

(listing goes on)

Structure (SMILES) | OC43 Inhibition rate | OC43 Inhibition rate (OC43 Inhibition rate, 24 h)
O=c1ccn([C@H]2C[C@H](O)[C@@H](CO)O2)c(=O)[nH]1 [2'-Deoxyuridine] | 1.5% | 
Nc1ccc(-c2ccccc2)cn1 [2-Amino-5-phenylpyridine] | 0.8% | 
COc1ccc2c(c1OC)O[C@H]1c3ccc(O)cc3OC[C@@H]21 [Methylnissolin] | 0.4% | 
O=c1cc(-c2ccc(O)cc2)oc2cc(O[C@@H]3O[C@H](CO)[C@@H](O)[C@H](O)[C@H]3O)cc(O)c12 [Apigenin 7-glucoside] | 6.5% | 
C[C@@H]1O[C@@H](O[C@H]2[C@H](O[C@H]3CC[C@@]4(C)[C@@H](CC[C@]5(C)[C@@H]4CC=C4[C@@H]6CC(C)(C)CC[C@]6(C(=O)O[C@@H]6O[C@H](CO[C@@H]7O[C@H](CO)[C@@H](O)[C@H](O)[C@H]7O)[C@@H](O)[C@H](O)[C@H]6O)CC[C@]45C)[C@]3(C)CO)OC[C@H](O)[C@@H]2O)[C@H](O)[C@H](O)[C@H]1O [Dipsacoside B] | 0.7% | 
C[C@H](CCC(=O)NCC(=O)O)[C@H]1CC[C@H]2[C@@H]3[C@H](O)C[C@@H]4C[C@H](O)CC[C@]4(C)[C@H]3CC[C@]12C [Glycochenodeoxycholic acid (sodium salt)] |  | 4.8%
Cc1nnc(SCC2=C(C(=O)O)N3C(=O)[C@@H](NC(=O)Cn4cc(Cl)c(=O)c(Cl)c4)[C@H]3SC2)s1 [Cefazedone] | 0.1% | 
C[C@@H]1O[C@@H](OC[C@H]2O[C@@H](Oc3cc(O)c4c(c3)O[C@H](c3ccc(O)c(O)c3)CC4=O)[C@H](O)[C@@H](O)[C@@H]2O)[C@H](O)[C@H](O)[C@H]1O [Eriocitrin] | 0% | 
C[C@]12CCC(=O)C=C1C=C[C@@H]1[C@@H]2CC[C@@]2(C)[C@H]1CC[C@@]21CCC(=O)O1 [Canrenone] | -0.1% | 
CC1(C)[C@@H](O)CC[C@]2(C)[C@H]3C(=O)C=C4[C@@H]5C[C@@](C)(C(=O)O)CC[C@]5(C)CC[C@@]4(C)[C@]3(C)CC[C@@H]12 [18β-Glycyrrhetinic acid] | 0.1% | 
CC1=C(O)C(=O)C(C)O1 (centres unmarked) [Furaneol] | 0.6% | 
NCCS [Cysteamine (hydrochloride)] | -0.2% | 
O=c1oc2cc(O)ccc2c2ccccc12 [Urolithin B] | 3.9% | 
O=C(/C=C\c1ccc(O)c(O)c1)N[C@@H](Cc1ccc(O)c(O)c1)C(=O)O [Clovamide] | -1.1% | 
O=c1cc(-c2ccc(O)cc2)oc2cc(O)c([C@@H]3O[C@H](CO)[C@@H](O)[C@H](O)[C@H]3O[C@@H]3OC[C@H](O)[C@H](O)[C@H]3O)c(O)c12 [Isovitexin 2''-O-arabinoside] | -0.5% | 
Oc1cccnc1 [3-Hydroxypyridine] | 2.1% | 
COc1c2ccoc2cc2oc(C)cc(=O)c12 [Visnagin] | 1.4% | 
c1c2c(cc3c1OCO3)-c1cc3ccc4c(c3c[n+]1CC2)OCO4 [Coptisine (chloride)] |  | 3.2%
CCc1ccc(C=O)cc1 [4-Ethylbenzaldehyde] | 0.5% | 
